Structures can show the parent of a compound that is named as a salt. The list shows a part of the results. Plates or batches differ in their baseline, so values are only roughly comparable.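 HCT116-GFP, a KRAS-mutant, microsatellite-unstable human colorectal cancer line, constantly expresses green fluorescent protein; immune cells were from healthy donors. Cancer cell survival was tracked by live-cell imaging of green fluorescence, and activated immune cells by themselves reduced survival to roughly half.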

The test relates to HCT116-GFP. The test is described as follows: HCT116-GFP viability (GFP intensity) relative to untreated HCT116-GFP monoculture control, co-culture with activated PBMCs; higher = less cancer cell killing. Conditions: culture: co-culture with anti-CD3/IL2 activated PBMCs 1:1; 10 µM; 72 h.
In the case of `NCCCC[C@H](N[C@@H](CCc1ccccc1)C(=O)O)C(=O)N1CCC[C@H]1C(=O)O` [Lisinopril], the HCT116-GFP viability turned out to be 35.6%.
In the case of `O=C(Nc1cccc2c(=O)cc(-c3nnn[nH]3)oc12)c1ccc(OCCCCc2ccccc2)cc1` [Pranlukast] it was 73.1%; in that of `CC(C)(C)NC[C@H](O)COc1nsnc1N1CCOCC1` [Timolol maleate salt], 71.8%.
For `CCOC(=O)[C@H](CCc1ccccc1)N[C@H]1CCc2ccccc2N(CC(=O)O)C1=O` [Benazepril hydrochloride], the HCT116-GFP viability stood at 55.7%.
Consider `COC1=C(OC)C(=O)C(CCCCCCCCCCO)=C(C)C1=O` [Idebenone], for which the HCT116-GFP viability stood at 54.3%.
For the compound `CCOC(=O)OC(C)OC(=O)[C@@H]1N2C(=O)[C@@H](NC(=O)[C@H](N)c3ccccc3)[C@H]2SC1(C)C` (stereo partly specified) [Bacampicillin hydrochloride], the HCT116-GFP viability worked out at 24.5%.
Take `CC[C@H]1OC(=O)[C@H](C)[C@@H](O[C@H]2C[C@@](C)(OC)[C@@H](O)[C@H](C)O2)[C@H](C)[C@@H](O[C@@H]2O[C@H](C)C[C@H](N(C)C)[C@H]2O)[C@](C)(O)C[C@@H](C)/C(=N\OCOCCOC)[C@H](C)[C@@H](O)[C@]1(C)O` [Roxithromycin]: the HCT116-GFP viability was 71.1%.
In the case of `Nc1nc(F)nc2c1ncn2[C@@H]1O[C@H](CO)[C@@H](O)[C@@H]1O` [Fludarabine] it was 2.4%; in that of `Nc1nc(=O)c2nc(CNc3ccc(C(=O)N[C@@H](CCC(=O)O)C(=O)O)cc3)cnc2[nH]1` [Folic acid], 39.3%.
Turning to `CC(=O)N[C@@H](CC(C)C)C(=O)O` [N-Acetyl-L-leucine], the HCT116-GFP viability came out at 73.7%.
In the case of `CC(C)C(=O)OCC(=O)[C@@]12O[C@H](C3CCCCC3)O[C@@H]1C[C@H]1[C@@H]3CCC4=CC(=O)C=C[C@]4(C)[C@H]3[C@@H](O)C[C@@]12C` [Ciclesonide] it was 54.6%; in that of `O=C1CN2Cc3c(ccc(Cl)c3Cl)N=C2N1` [Anagrelide], 34.3%; in that of `Nc1nc(=S)c2ncn([C@@H]3O[C@H](CO)[C@@H](O)[C@H]3O)c2[nH]1` [Thioguanosine], 14.3%.
For the compound `CC(C)NCC(O)COc1ccc(COCCOC(C)C)cc1` (stereo unspecified) [Bisoprolol fumarate], the HCT116-GFP viability came out at 47.7%.
In the case of `CO[C@H]1/C=C/O[C@@]2(C)Oc3c(C)c(O)c4c(c3C2=O)C2=NC3(CCN(CC(C)C)CC3)NC2=C(NC(=O)/C(C)=C\C=C\[C@H](C)[C@H](O)[C@@H](C)[C@@H](O)[C@@H](C)[C@H](OC(C)=O)[C@@H]1C)C4=O` [Rifabutin] it was 14%; in that of `O=C(Cn1ccnc1[N+](=O)[O-])NCCO` [Etanidazole], 77.2%.
The compound `CN(C)CCN(Cc1cccs1)c1ccccn1` [Methapyrilene hydrochloride] returned an HCT116-GFP viability of 44.2%.
For the compound `COc1c(O[C@@H]2O[C@H](CO)[C@@H](O)[C@H](O)[C@H]2O)cc2c(c1OC)-c1ccc(SC)c(=O)cc1[C@@H](NC(C)=O)CC2` [Thiocolchicoside], the HCT116-GFP viability stood at 29.1%.
The compound `Clc1ccc(C(Cn2ccnc2)OCc2c(Cl)cccc2Cl)c(Cl)c1` (stereo unspecified) [Isoconazole] returned an HCT116-GFP viability of 41.3%.
Then `NC(=O)N1c2ccccc2C=Cc2ccccc21` [Carbamazepine], with 54.4%; and `COc1cc2nc(N3CCN(C(=O)c4ccco4)CC3)nc(N)c2cc1OC` [Prazosin hydrochloride], with 23.2%.
`CCn1cc(C(=O)O)c(=O)c2cnc(N3CCNCC3)nc21` [Pipemidic acid] had an HCT116-GFP viability of 76.4%.
Compound `COc1nc(C)nc(Cl)c1NC1=NCCN1` [Moxonidine] had an HCT116-GFP viability of 31.3%.
In turn, `CC(=O)N[C@@H](CC(=O)N[C@@H](CCC(=O)O)C(=O)O)C(=O)O` [Spaglumic acid] registered an HCT116-GFP viability of 48.2%.
Then `Cc1ccc(S(=O)(=O)NC(=O)NN2CC3CCCC3C2)cc1` (stereo unspecified) [Gliclazide], with 65.1%.
Then `C#CCN(C)Cc1ccccc1` [Pargyline hydrochloride], with 38%.
`CCn1cc(C(=O)O)c(=O)c2ccc(C)nc21` [Nalidixic acid sodium salt] displayed an HCT116-GFP viability of 55.6%.
Then `COc1ccc2cc(CCC(C)=O)ccc2c1` [Nabumetone], with 66.8%; and `O=C(CCCN1CC=C(n2c(=O)[nH]c3ccccc32)CC1)c1ccc(F)cc1` [Droperidol], with 32.9%; and `CCN(CC)CCNC(=O)c1cc(S(C)(=O)=O)ccc1OC` [Tiapride hydrochloride], with 34.7%.
In the case of `CN1C2CCCC1CC(NC(=O)c1nn(C)c3ccccc13)C2` (stereo unspecified) [Granisetron] it was 55.1%; in that of `CC(C)N1CCN(c2ccc(OCC3COC(Cn4cncn4)(c4ccc(Cl)cc4Cl)O3)cc2)CC1` (stereo unspecified) [Terconazole], 59.4%.
Turning to `CN(C)CCOC1=Cc2ccccc2Sc2ccc(Cl)cc21` [Zotepine], the HCT116-GFP viability worked out at 69.7%.
As for `CCN(Cc1ccncc1)C(=O)C(CO)c1ccccc1` (stereo unspecified) [Tropicamide], the HCT116-GFP viability was 46.5%.
In the case of `O=C(NCCNCC(O)COc1ccc(O)cc1)N1CCOCC1` (stereo unspecified) [Xamoterol hemifumarate] it was 74.2%.
For the compound `Cc1ncc([N+](=O)[O-])n1CCO` [Metronidazole], the HCT116-GFP viability came out at 44.1%.
Then `CCN(CC)CC#CCOC(=O)C(O)(c1ccccc1)C1CCCCC1` (stereo unspecified) [Oxybutynin chloride], with 53.4%; and `OC(CCN1CCCCC1)(c1ccccc1)C1CC2C=CC1C2` (stereo unspecified) [Biperiden hydrochloride], with 55.8%; and `COc1ccc(C(=O)NCc2cccnc2)cc1C(=O)NCc1cccnc1` [Picotamide monohydrate], with 45.2%.
In the case of `COc1ccc2[nH]cc(CCNC(C)=O)c2c1` [Melatonin] it was 62.5%.
For the compound `NC[C@H]1O[C@H](O[C@H]2[C@H](O[C@@H]3O[C@H](CO)[C@@H](O)[C@H]3O)[C@@H](O)[C@H](N)C[C@@H]2N)[C@H](N)[C@@H](O)[C@@H]1O` [Ribostamycin sulfate salt], the HCT116-GFP viability came to 72.1%.
Then `Cc1ccc(C(=O)c2cc(O)c(O)c([N+](=O)[O-])c2)cc1` [Tolcapone], with 39.5%; and `CN1CCCCC1CCN1c2ccccc2Sc2ccc([S+](C)[O-])cc21` (stereo unspecified) [Mesoridazine besylate], with 41.6%.
In turn, `NC(=O)N/N=C/c1ccc([N+](=O)[O-])o1` [Nitrofural] had an HCT116-GFP viability of 42.4%.
Then `CN(C)CCC[C@@]1(c2ccc(F)cc2)OCc2cc(C#N)ccc21` [Escitalopram oxalate], with 52.4%; and `CCCC(=O)Nc1ncnc2c1ncn2[C@@H]1O[C@@H]2COP(=O)(O)O[C@H]2[C@H]1OC(=O)CCC` [Bucladesine sodium salt], with 67.9%.

For the origin of these results see the supplement of paper PMC9938546.
